Test results as given in PMC7072329 (Biomolecules, 2020).
Some peptides are written in HELM: one residue between dots, names in brackets for other building blocks, links after the first $. [ ]: non-standard residue; d: D form. The star is where a group is joined. Kyn = Nc1ccccc1C(=O)C[C@H](N)C(=O)O; Boc = CC(C)(C)OC(=O)*

Experiment: general procedure: solution-phase peptide synthesis; EDC·HCl, HOBt, DIPEA
Settings: for isolated yield: overall
[1] = late stage modification step, analytical RP-HPLC recorded at 254 nm, TFA salt

Boc-[dA]GF[Kyn]-OMe
step yield (coupling step, TFA salt): 84%

Boc‐Tyr‐DAla‐Gly‐N(Me)Phe‐aminoethanol‐kynurenic acid
step yield (coupling step, from 5, TFA salt): 66%

PEPTIDE1{Y.P.F.[Kyn].[am]}$$$$V2.0
step yield (late stage modification step, from 14, TFA salt): 83% | isolated yield (whole synthesis, TFA salt): 83%

PEPTIDE1{Y.P.[Kyn].F.[am]}$$$$V2.0
step yield (late stage modification step, from 10, TFA salt): 72% | isolated yield (whole synthesis, TFA salt): 72%

PEPTIDE1{Y.[dA].G.F.[Kyn].[am]}$$$$V2.0
final HPLC purity [1]: 96% | step yield (late stage modification step, from 21, TFA salt): 52% | isolated yield (whole synthesis, TFA salt): 48%

PEPTIDE1{Y.[dA].G.F.[Kyn]}$$$$V2.0
final HPLC purity [1]: 98% | step yield (late stage modification step, from 20, TFA salt): 72% | isolated yield (whole synthesis, TFA salt): 62%

PEPTIDE1{Y.[dA].G.[NMePhe].[NHEtO-kyna]}$$$$V2.0
final HPLC purity (whole synthesis, 254 nm, TFA salt, run 1): ≥95% | final HPLC purity (whole synthesis, 254 nm, TFA salt, run 2): 97.64% | isolated yield (whole synthesis, TFA salt): 71%

TFA.NH2‐Tyr‐DAla‐Gly‐Phe‐Kyn‐OCH3
isolated yield (whole synthesis, TFA salt): 62%
